Test results: PubChem BioAssay AID485314 (National Center for Advancing Translational Sciences (NCATS), 2010)
About 4,500 (1.3%) of roughly 340,000 compounds were called active. The shares of active, inactive and inconclusive entries below differ from those in the screen. The call rests on the fitted dose curve; in most records, active means well fitted inhibition curve with a large enough effect; inconclusive means small, poorly fitted or top-dose-only effect, or another doubt; inactive means no such curve, though single readings can be large or run the other way. Potencies of inconclusive entries are doubtful fits and often do not repeat.

Target: DNA polymerase beta (Homo sapiens) (UniProt P06746)
Experiment: qHTS Assay for Inhibitors of DNA Polymerase Beta
Conditions: Pol beta primer extension/strand displacement, fluorescence kinetic; activity change, negative = inhibition: at 114 µM (top of the series)
Summary of the method: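 Pol beta (10 nM) was preincubated with compound for 15 min at room temperature. The reaction was then started with 50 nM substrate and read immediately and after a further 10 min at room temperature.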
On the % scale 0 is the no-effect control and ±100 the full control effect; potency means the concentration at half of the fitted maximal effect.

**Q.** How did the Potency turn out when CCOC(=O)N1CCN(C(=O)CN(c2cc(C)ccc2OC)S(=O)(=O)c2ccc(C)cc2)CC1 was run?
**A.** The Potency was inconclusive: 0.0355 µM [inhibitor, full curve, poor fit].

**Q.** Cc1ccc(S(=O)(=O)Cc2nc(-c3ccc(C(=O)NCc4ccccc4F)cc3)oc2C)cc1 was tested. Which Potency did it give?
**A.** The Potency was inconclusive: 50.1 µM [inhibitor, partial curve, poor fit].

**Q.** For Cc1cc(/C=N/Nc2ccc([N+](=O)[O-])cn2)c(C)n1-c1ccc(C(=O)O)cc1, which Potency is on record?
**A.** Its Potency is inconclusive: 20 µM [inhibitor, full curve].

**Q.** With Cc1ccc(-c2nnc(Nc3cccc(C(F)(F)F)c3)c3ccccc23)cc1S(=O)(=O)N1CCOCC1 as the molecule, how does the Potency read?
**A.** Its Potency is “inactive”.

**Q.** Which Potency does the source give for Cc1c(N)cc[n+](CC(=O)c2ccccc2)c1C here?
**A.** The Potency was inconclusive: 39.8 µM [inhibitor, single point].

**Q.** CCCn1c(N/N=C\C=C\c2ccccc2)nc2c1c(=O)[nH]c(=O)n2C was tested. Which Potency did it give?
**A.** Its Potency is inconclusive: 22.4 µM [inhibitor, full curve].

**Q.** Which Potency does the source give for COC(=O)CP(=O)(c1ccccc1)c1ccccc1 here?
**A.** Its Potency is inconclusive: 89.1 µM [inhibitor, single point].

**Q.** Cc1nn(Cc2ccccc2Cl)c(C)c1C(=O)N1CCN(c2ccccc2)CC1 was tested. Which Potency did it give?
**A.** Its Potency is inconclusive: 89.1 µM [inhibitor, single point].

**Q.** CCCCC[C@H]1CN(CCc2ccccc2)C(=O)[C@@H]1CC(=O)NCc1ccc(OC)cc1 was tested. Which Potency did it give?
**A.** Its Potency is inconclusive: 10 µM [inhibitor, full curve, poor fit].

**Q.** How did the Potency turn out when CCOc1ccc2oc(=O)cc(CN3CCN(c4ccc(Cl)cc4)CC3)c2c1 was run?
**A.** The Potency was “inactive”.

**Q.** Which Potency does the source give for C=CSc1sc(Cl)c(N(C)C)c1[N+](=O)[O-] here?
**A.** The Potency was “inactive”.

**Q.** For CC(=O)c1cccc(NC(=O)CSc2ccc(-c3sc(C)nc3C)nn2)c1, which Potency is on record?
**A.** The Potency was active: 79.4 µM.

**Q.** Cc1c(C(=O)N(Cc2ccc(N(C)C)cc2)CC2CCCO2)oc2ccc(Br)cc12 (centres undefined) was tested. Which Potency did it give?
**A.** The Potency was “inactive”.

**Q.** For Oc1ccccc1-n1nc2ccc3nonc3c2n1, which Potency is on record?
**A.** Its Potency is inconclusive: 89.1 µM [inhibitor, single point].

**Q.** For COc1cc2c(C(=O)N(C)c3ccc(F)cc3)cn(C)c(=O)c2cc1OC, which Potency is on record?
**A.** The Potency was inconclusive: 39.8 µM [inhibitor, single point].

**Q.** CCCCCCCC/C=C\CCCCCCCC(=O)NCCO was tested. Which Potency did it give?
**A.** The Potency was inconclusive: 31.6 µM [inhibitor, partial curve].

**Q.** COc1ccc(CCNC(=O)CCc2c(C)nc3cc(-c4ccccc4OC)nn3c2C)c(OC)c1 was tested. Which Potency did it give?
**A.** Its Potency is “inactive”.

**Q.** Cc1ccc(Nc2nnc(-c3cc4c(ccc5ccccc54)oc3=O)s2)cc1 was tested. Which activity change, negative = inhibition did it give?
**A.** Its activity change, negative = inhibition is inconclusive: -159% [inhibitor].

**Q.** How did the Potency turn out when Cc1ccc(-c2nc(SCC(=O)N(C)c3c(N)n(Cc4ccccc4)c(=O)[nH]c3=O)n[nH]2)cc1 was run?
**A.** The Potency was active: 89.1 µM.
